Test results as given in paper PMC6240287.
These are yes or no findings as the source states them, for the method shown. In cells and extracts the contact can be indirect. Some binding calls cover weakened binding; strength is not graded here.

Sequences of proteins named here, by UniProt entry; tags and fusion partners are left off.
UniProt P35222: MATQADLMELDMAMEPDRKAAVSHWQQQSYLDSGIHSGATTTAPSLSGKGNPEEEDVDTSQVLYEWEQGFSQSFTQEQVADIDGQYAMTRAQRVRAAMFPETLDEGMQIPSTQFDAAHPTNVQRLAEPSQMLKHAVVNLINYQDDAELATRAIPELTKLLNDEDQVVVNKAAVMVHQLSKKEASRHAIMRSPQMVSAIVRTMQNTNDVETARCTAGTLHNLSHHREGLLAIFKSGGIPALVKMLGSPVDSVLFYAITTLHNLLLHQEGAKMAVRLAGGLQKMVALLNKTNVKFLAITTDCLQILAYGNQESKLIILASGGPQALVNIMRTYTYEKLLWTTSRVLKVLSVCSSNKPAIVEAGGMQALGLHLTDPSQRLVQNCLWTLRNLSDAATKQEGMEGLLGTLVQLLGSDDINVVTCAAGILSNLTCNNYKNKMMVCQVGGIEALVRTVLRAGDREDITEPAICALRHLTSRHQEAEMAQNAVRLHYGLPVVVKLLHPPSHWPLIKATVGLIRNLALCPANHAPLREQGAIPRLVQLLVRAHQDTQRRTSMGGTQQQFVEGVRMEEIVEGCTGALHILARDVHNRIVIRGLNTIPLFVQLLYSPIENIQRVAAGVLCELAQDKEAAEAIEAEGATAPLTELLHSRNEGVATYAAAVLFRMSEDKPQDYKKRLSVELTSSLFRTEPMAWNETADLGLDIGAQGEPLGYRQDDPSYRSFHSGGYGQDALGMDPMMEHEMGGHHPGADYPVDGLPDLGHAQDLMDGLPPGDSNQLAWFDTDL

Target: β-catenin (UniProt P35222)
Assay: co-IP; RKO cells pre-treated with the GSK3 inhibitor CHIR99021 (6 μM, 24 h); which protein was precipitated is not told

B1: Tob1 (protein, UniProt P50616 1-345)
chain: MQLEIQVALNFIISYLYNKLPRRRVNIFGEELERLLKKKYEGHWYPEKPYKGSGFRCIHIGEKVDPVIEQASKESGLDIDDVRGNLPQDLSVWIDPFEVSYQIGEKGPVKVLYVDDNNENGCELDKEIKNSFNPEAQVFMPISDPASSVSSSPSPPFGHSAAVSPTFMPRSTQPLTFTTATFAATKFGSTKMKNSGRSNKVARTSPINLGLNVNDLLKQKAISSSMHSLYGLGLGSQQQPQQQQQPAQPPPPPPPPQQQQQQKTSALSPNAKEFIFPNMQGQGSSTNGMFPGDSPLNLSPLQYSNAFDVFAAYGGLNEKSFVDGLNFSLNNMQYSNQQFQPVMAN
B1 was tested, and the binding was “binds”.
